Assay results reported in PubChem BioAssay AID248 (DTP/NCI, 2004).
The list does not hold the whole screen: it is rich in T/C values a quarter to a half above the control, in often repeated tests (any T/C) and in doses without a T/C. Other doses and runs of a compound stand elsewhere. T/C gives the treated animals as a percentage of the vehicle group. Some entries give survivors of the animals treated and no T/C: the source holds a T/C of zero for them, seemingly a mark for toxic or unscored doses. Some doses without a T/C left all or most animals alive at the check, yet need not have been tolerated: the source hardly ever lists a survival T/C far under the control, and the zero likely stands for such cases as well. Survivors were counted at the toxicity check, usually on the fifth day, unless a day is given; later deaths do not show. Schedules are NCI's codes, read here as Q, the interval in days (D) or hours (H), X, the number of doses. Marks such as (2×) give the number of equal values in this list. Some doses were run more than once; the values are given in rising order. Some schedule codes hold Z or #, which are not explained here. Where survival is the endpoint, this PubChem deposit counts one and a half times the control or more as active, and values a quarter to a half above the control carry no call in these data; other NCI protocols may use other cut-offs. Some T/C values are followed by the survivors on the day toxicity was checked, most often the fifth; where none is given, no animal had died by that day.

Tested on: L1210 leukemia ip in BDF1 mice, survival T/C
Assay: NCI In Vivo Anticancer Drug Screen. Data for tumor model L1210 Leukemia (intraperitoneal) in B6D2F1 (BDF1) mice
Settings: T/C endpoint: mean survival time, higher T/C = longer survival
[1] = dose: 100.0 mg/kg/injection, schedule: Q04DX002 (ip), vehicle: Klucel (hydroxypropylcellulose) (HPC)
[2] = dose: 200.0 mg/kg/injection, schedule: Q01DX009 (ip), vehicle: Klucel (hydroxypropylcellulose) (HPC)
[3] = dose: 150.0 mg/kg/injection, schedule: Q01DX001 (ip), vehicle: saline
[4] = dose: 300.0 mg/kg/injection, schedule: Q01DX001 (ip), vehicle: saline
[5] = dose: 200.0 mg/kg/injection, schedule: Q01DX009 (ip), vehicle: saline with Tween-80
[6] = dose: 400.0 mg/kg/injection, schedule: Q01DX009 (ip), vehicle: saline with Tween-80
[7] = dose: 100.0 mg/kg/injection, schedule: Q01DX009 (ip), vehicle: saline
[8] = dose: 200.0 mg/kg/injection, schedule: Q01DX001 (ip), vehicle: saline
[9] = dose: 200.0 mg/kg/injection, schedule: Q01DX009 (ip), vehicle: saline
[10] = dose: 200.0 mg/kg/injection, schedule: Q04DX003 (ip), vehicle: saline
[11] = dose: 400.0 mg/kg/injection, schedule: Q01DX001 (ip), vehicle: saline
[12] = dose: 100.0 mg/kg/injection, schedule: Q01DX009 (ip), vehicle: saline with Tween-80
[13] = dose: 400.0 mg/kg/injection, schedule: Q04DX003 (ip), vehicle: saline
[14] = dose: 400.0 mg/kg/injection, schedule: Q01DX009 (ip), vehicle: saline
[15] = dose: 600.0 mg/kg/injection, schedule: Q01DX009 (ip), vehicle: saline
[16] = dose: 100.0 mg/kg/injection, schedule: Q01DX001 (ip), vehicle: carboxymethylcellulose (CMC)
[17] = dose: 400.0 mg/kg/injection, schedule: Q01DX001 (ip), vehicle: carboxymethylcellulose (CMC)

**Q.** Which results are given for `CCOC(=N)N1Cc2ccccc2CCc2ccccc2C1`?
**A.** survivor count (dose: 100.0 mg/kg/injection, schedule: Q01DX009 (ip), vehicle: Klucel (hydroxypropylcellulose) (HPC)): 0 of 6; survivor count [1]: 0 of 3; survivor count [2]: 0 of 6; survivor count (dose: 400.0 mg/kg/injection, schedule: Q01DX009 (ip), vehicle: Klucel (hydroxypropylcellulose) (HPC)): 0 of 6

**Q.** Which results are given for `CCCC(CCC)NCCOC(=O)C(CC)c1ccccc1` (centres undefined)?
**A.** survivor count [3]: 1 of 6; survivor count [4]: 0 of 6

**Q.** With `O=[N+]([O-])c1ccc(S(=O)(=O)c2ccccc2)c([N+](=O)[O-])c1` as the molecule, how does the survivor count (dose: 100.0 mg/kg/injection, schedule: Q01DX001 (ip), vehicle: saline) read?
**A.** 0 of 6

**Q.** For `O=C(NCCNC(c1ccccc1)C(NCCNC(=O)c1ccccc1)c1ccccc1)c1ccccc1` (centres undefined), which survivor count [5] is on record?
**A.** 6 of 6

**Q.** With `CCCCCCCCCCCCCCCCCCS(=O)(=O)CCCl` as the molecule, how does the survivor count (dose: 100.0 mg/kg/injection, schedule: Q04DX003 (ip), vehicle: Klucel (hydroxypropylcellulose) (HPC)) read?
**A.** 6 of 6

**Q.** `CCc1cc(Cl)ccc1OCC(=O)O` was tested. Which survivor count [6] did it give?
**A.** 0 of 6

**Q.** For `CCN(CC)CCCC(C)Nc1ccnc2cc(Cl)ccc12` (centres undefined), which survivor count [7] is on record?
**A.** 3 of 6

**Q.** And the survivor count [8]?
**A.** 0 of 4 and 2 of 6

**Q.** What about the survivor count [9] of the same molecule?
**A.** 0 of 6

**Q.** What about the survivor count [10] of the same molecule?
**A.** 1 of 6

**Q.** What about the survivor count [11] of the same molecule?
**A.** 0 of 4

**Q.** Which survivor count (dose: 50.0 mg/kg/injection, schedule: Q04DX002 (ip), vehicle: Klucel (hydroxypropylcellulose) (HPC)) does the source give for `C=C(Br)S(=O)(=O)CC` here?
**A.** 1 of 3

**Q.** What about the survivor count [1] of the same molecule?
**A.** 0 of 3

**Q.** And the survivor count (dose: 200.0 mg/kg/injection, schedule: Q04DX002 (ip), vehicle: Klucel (hydroxypropylcellulose) (HPC))?
**A.** 0 of 3

**Q.** What about the survivor count (dose: 400.0 mg/kg/injection, schedule: Q04DX002 (ip), vehicle: Klucel (hydroxypropylcellulose) (HPC)) of the same molecule?
**A.** 0 of 3

**Q.** Which survivor count (dose: 300.0 mg/kg/injection, schedule: Q01DX009 (ip), vehicle: saline with Tween-80) does the source give for `COc1ccc(CC(=O)NCCc2ccc3c(c2)OCO3)cc1OC` here?
**A.** 3 of 6

**Q.** What about the survivor count (dose: 400.0 mg/kg/injection, schedule: Q04DX003 (ip), vehicle: saline with Tween-80) of the same molecule?
**A.** 3 of 6

**Q.** `OC(C/C=C/c1ccccc1)c1ccccc1` (centres undefined) was tested. Which survivor count [2] did it give?
**A.** 3 of 3

**Q.** What does the source list for `c1ccc(C2(c3ccccc3)CC([P+](c3ccccc3)(c3ccccc3)c3ccccc3)N=N2)cc1` (centres undefined)?
**A.** survivor count (dose: 75.0 mg/kg/injection, schedule: Q01DX001 (ip), vehicle: saline): 3 of 6; survivor count [3]: 1 of 6; survivor count [4]: 0 of 6

**Q.** With `CC(=O)OCC(OC(C)=O)C(OC(C)=O)C(OC(C)=O)C(O)C#N` (centres undefined) as the molecule, how does the survivor count [12] read?
**A.** 1 of 3

**Q.** What about the survivor count [5] of the same molecule?
**A.** 0 of 3

**Q.** What does the source list for `CN(C)CCCC1(C#N)c2ccccc2CCc2ccccc21`?
**A.** survivor count [7]: 3 of 6; survivor count [10]: 2 of 4; survivor count [13]: 0 of 4

**Q.** With `S=C(S)NCCCNC(=S)S` as the molecule, how does the survivor count [11] read?
**A.** 3 of 6

**Q.** How did the T/C (dose: 30.0 mg/kg/injection, schedule: Q01DX Z (ip), vehicle: saline) turn out when `CNC(=O)c1cc(NC(=O)Nc2ccc(C3=NCCN3)cc2)cc(NC(=O)Nc2ccc(C3=NCCN3)cc2)c1` was run?
**A.** 144 % of control

**Q.** For `CN(C)CCN(C)C(=O)C(c1ccccc1)C1CCCCC1` (centres undefined), which survivor count [4] is on record?
**A.** 1 of 6

**Q.** `Cc1ccc(S(=O)(=O)Nc2ncc([N+](=O)[O-])s2)cc1` was tested. Which survivor count [12] did it give?
**A.** 6 of 6

**Q.** What about the survivor count [5] of the same molecule?
**A.** 6 of 6

**Q.** Which results are given for `CCCCCN1C(=O)NC(=O)C(Cl)C1=O` (centres undefined)?
**A.** survivor count [8]: 1 of 6; survivor count [11]: 0 of 6

**Q.** With `N#Cc1c(CSC(=N)N)sc2ccccc12` as the molecule, how does the survivor count (dose: 200.0 mg/kg/injection, schedule: Q04DX003 (ip), vehicle: Klucel (hydroxypropylcellulose) (HPC)) read?
**A.** 1 of 6

**Q.** What about the survivor count (dose: 400.0 mg/kg/injection, schedule: Q04DX003 (ip), vehicle: Klucel (hydroxypropylcellulose) (HPC)) of the same molecule?
**A.** 0 of 6

**Q.** For `[O-][n+]1c(C(Cl)(Cl)Cl)cc(Cl)nc1Cl`, which survivor count (dose: 400.0 mg/kg/injection, schedule: Q01DX001 (ip), vehicle: Klucel (hydroxypropylcellulose) (HPC)) is on record?
**A.** 0 of 6

**Q.** `CN(O)C(N)=O` was tested. Which T/C (dose: 12.5 mg/kg/injection, schedule: Q03HX024 (ip), vehicle: saline) did it give?
**A.** 125 % of control

**Q.** What about the T/C (dose: 23.0 mg/kg/injection, schedule: Q01DX009 (ip), vehicle: saline) of the same molecule?
**A.** 128 % of control

**Q.** And the T/C (dose: 53.0 mg/kg/injection, schedule: Q01DX009 (ip), vehicle: saline)?
**A.** 132 and 138 % of control

**Q.** What about the T/C (dose: 76.0 mg/kg/injection, schedule: Q01DX009 (ip), vehicle: saline) of the same molecule?
**A.** 144 % of control

**Q.** What about the T/C (dose: 79.0 mg/kg/injection, schedule: Q01DX009 (ip), vehicle: saline) of the same molecule?
**A.** 140 % of control

**Q.** What about the survivor count (dose: 100.0 mg/kg/injection, schedule: Q03HX024 (ip), vehicle: saline) of the same molecule?
**A.** 8 of 10

**Q.** And the T/C (dose: 116.0 mg/kg/injection, schedule: Q01DX009 (ip), vehicle: saline)?
**A.** 135 and 144 % of control

**Q.** What about the T/C (dose: 118.0 mg/kg/injection, schedule: Q01DX009 (ip), vehicle: saline) of the same molecule?
**A.** 145 % of control

**Q.** What about the T/C (dose: 175.0 mg/kg/injection, schedule: Q04DX003 (ip), vehicle: saline) of the same molecule?
**A.** 125 % of control

**Q.** What about the T/C (dose: 178.0 mg/kg/injection, schedule: Q01DX009 (ip), vehicle: saline) of the same molecule?
**A.** 146 % of control

**Q.** And the T/C (dose: 265.0 mg/kg/injection, schedule: Q01DX009 (ip), vehicle: saline)?
**A.** 98, 110, 115 [5 of 6 alive], 149 % of control

**Q.** What about the T/C (dose: 265.0 mg/kg/injection, schedule: Q04DX003 (ip), vehicle: saline) of the same molecule?
**A.** 127 % of control

**Q.** And the T/C [14]?
**A.** 88, 101 [5 of 6 alive], 115 [9 of 10 alive], 124 [5 of 6 alive], 125, 174, 185 % of control

**Q.** What about the T/C [13] of the same molecule?
**A.** 127 % of control

**Q.** And the T/C [15]?
**A.** 90, 94, 110, 124 % of control

**Q.** And the survivor count [15]?
**A.** 6 of 6

**Q.** And the T/C (dose: 600.0 mg/kg/injection, schedule: Q04DX003 (ip), vehicle: saline)?
**A.** 136 and 147 % of control

**Q.** Which survivor count (dose: 256.0 mg/kg/injection, schedule: Q01DX Z (ip), vehicle: saline) does the source give for `NCCCCCCNC(=O)CCC(=O)NCCCCCCN` here?
**A.** 0 of 6

**Q.** With `CCN(CC)Cc1cc(Nc2c(C)cnc3cc(Cl)ccc23)ccc1O` as the molecule, how does the survivor count [7] read?
**A.** 3 of 6 (2×)

**Q.** What about the survivor count [9] of the same molecule?
**A.** 0 of 6

**Q.** What about the survivor count [14] of the same molecule?
**A.** 0 of 6

**Q.** For `COc1ccc([N+](=O)[O-])cc1NS(=O)(=O)c1c(C)cc(C)cc1C`, which survivor count [6] is on record?
**A.** 6 of 6

**Q.** How did the survivor count [16] turn out when `C[Si](C)(N1CC1)N1CC1` was run?
**A.** 0 of 4

**Q.** What about the survivor count (dose: 200.0 mg/kg/injection, schedule: Q01DX001 (ip), vehicle: carboxymethylcellulose (CMC)) of the same molecule?
**A.** 0 of 4

**Q.** And the survivor count [17]?
**A.** 0 of 4

**Q.** What does the source list for `C=Cc1c(C)c2cc3[nH]c(cc4nc(cc5nc(cc1[nH]2)C(C)=C5CCC(=O)O)C(CCC(=O)O)=C4C)c(C)c3C=C`?
**A.** survivor count [12]: 6 of 6; survivor count [5]: 6 of 6

**Q.** Which survivor count (dose: 150.0 mg/kg/injection, schedule: Q01DX001 (ip), vehicle: steroid suspending solution) does the source give for `O=C(O)/C(Br)=C/C(=O)c1ccccc1` here?
**A.** 3 of 6

**Q.** Which survivor count (dose: 100.0 mg/kg/injection, schedule: Q04DX002 (ip), vehicle: DMSO) does the source give for `Clc1ccc(COC(Cn2ccnc2)c2ccc(Cl)cc2Cl)cc1` (centres undefined) here?
**A.** 1 of 3

**Q.** What about the survivor count (dose: 200.0 mg/kg/injection, schedule: Q04DX002 (ip), vehicle: DMSO) of the same molecule?
**A.** 1 of 3

**Q.** And the survivor count (dose: 400.0 mg/kg/injection, schedule: Q04DX002 (ip), vehicle: DMSO)?
**A.** 0 of 3

**Q.** With `CCCC(NC)C(CC)CN` (centres undefined) as the molecule, how does the T/C [16] read?
**A.** 143 % of control

**Q.** What about the survivor count [4] of the same molecule?
**A.** 0 of 6 and 1 of 4

**Q.** What about the survivor count [17] of the same molecule?
**A.** 0 of 6 and 1 of 6
